Data: PubChem BioAssay AID2685 (National Center for Advancing Translational Sciences (NCATS), 2010)
This is one part of the list. Shown are side measurements of this screen, not its main read-out; they come without a call. The list favours compounds with an active or inconclusive main result. The note in brackets gives the kind of curve behind each potency; many fits are weak.

Experiment: qHTS Assay for Lipid Storage Modulators in Drosophila S3 Cells;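 as to cell number change: cells counted by Cell Tracker Red CMTPX staining in the red channel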
Details: BODIPY lipid droplet fluorescence, 18-24 h; for cell number change: measured here: cell count max response, cells fed with added oleic acid
Summary of the method: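 Drosophila S3 cells got compounds at several concentrations plus oleic acid (400 uM solution). Laser-scanning cytometry with 488 nm excitation read lipid droplets at 500-530 nm and cells at 575-640 nm. Percent activity was relative to 20 uM Triacsin C.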

[1] = measured here: lipid fluorescence (Fed channel) AC50, cells fed with added oleic acid
[2] = measured here: cell number channel AC50, cells fed with added oleic acid

SMILES	cell number change [%]	AC50 [1]	AC50 [2]
COc1ccccc1N1CCN(C2CCCN(C(=O)CCc3ccccn3)C2)CC1 (stereo not drawn)	-2.31	32.6 µM [falling, single point]	–
O=C(O)C1Cc2ccccc2CN1S(=O)(=O)c1ccc2ccccc2c1 (stereo not drawn)	23.1	2.06 µM [falling, partial curve]	–
O=C(CCc1nc(-c2ccccc2)no1)NC1CCCCCC1	-8.65	32.6 µM [falling, single point]	–
CC(C)(C)c1ccc(SCC(N)=O)cc1	–	0.651 µM [falling, full curve]	0.58 µM [falling, full curve]
O=S(=O)(NC1=NCCC1)c1ccc(F)cc1F	–	0.00461 µM [rising, full curve, poor fit]	0.0058 µM [rising, full curve, poor fit]
O=C(COC(=O)Cc1ccc(Cl)c(Cl)c1)Nc1ccc2[nH]c(=O)[nH]c2c1	-30.8	2.91 µM [falling, full curve]	3.66 µM [falling, full curve, poor fit]
O=C(O)CSc1nnc(-c2ccco2)o1	6.29	–	–
CCCCCn1c(N2CCCC2)nc2c1c(=O)n(C)c(=O)n2C	-27.2	29.1 µM [rising, single point]	–
Cc1nc2c(sc(=S)n2Cc2ccco2)c(=O)n1CC(=O)Nc1ccc(F)cc1	–	20.6 µM [falling, single point]	–
CC(C)(C)N(Cc1ccccc1)C(=O)CN1C(=O)NC2(CCCCCC2)C1=O	31.3	13 µM [rising, partial curve, poor fit]	13 µM [rising, partial curve, poor fit]
Cc1nc2cc(NS(=O)(=O)c3cccc4cccnc34)ccc2s1	-25.8	16.4 µM [falling, partial curve]	–
CCCCn1c(N)c(N(CC(C)C)C(=O)C2CCN(S(=O)(=O)c3ccc(OCC)cc3)CC2)c(=O)[nH]c1=O	-17.2	0.82 µM [falling, partial curve]	5.8 µM [falling, single point]
CCc1nc(SCC(=O)c2cc(C)ccc2C)n[nH]1	30.8	–	0.651 µM [rising, full curve, poor fit]
CC/C(CC(C)(C)c1ccccc1)=N\O	-42.6	1.46 µM [falling, full curve]	1.46 µM [falling, full curve]
CC1(NC(=O)CCc2ccccc2)CCN(CCCc2ccccc2)C1=O (stereo not drawn)	-3.88	0.82 µM [rising, single point]	–
O=C(NCC(c1ccco1)N1CCc2ccccc2C1)c1ccccc1Br (stereo not drawn)	4.42	32.6 µM [falling, single point]	–
Cc1ccnc(NS(=O)(=O)c2ccc(NC(=O)Cc3ccc(F)cc3)cc2)n1	-16.3	–	–
O=C(CN1CCN(S(=O)(=O)c2ccc(Cl)cc2)CC1)Nc1ccc2c(c1)CCC2	-10.6	9.2 µM [rising, partial curve]	–
O=C1Cc2cc(S(=O)(=O)N3CCN(c4cccc(Cl)c4)CC3)ccc2N1	66	–	9.2 µM [rising, partial curve, poor fit]

SMILES	cell number change [%]	AC50 [1]	AC50 [2]
NS(=O)(=O)c1cccc(NC(=O)/C=C/c2cccs2)c1	-42.3	–	–
CCc1cc(C(=O)Nc2cc(S(=O)(=O)N(CC)CC)ccc2N2CCN(C)CC2)sc1C	25	16.4 µM [rising, single point]	–
C/C(=N\NC(=O)Cc1cccn1C)c1cccs1	21.4	–	–
Cc1nn2c(Nc3ccc(F)cc3)c3c(nc2c1-c1ccccc1)CCC3	-1.37	0.146 µM [falling, full curve, poor fit]	–
CC(C)(C)c1ccc(C(=O)CSc2ncn[nH]2)cc1	–	–	6.51 µM [falling, single point]
CCOc1ccc(-c2nnc3ccc(SCC(=O)Nc4nc5ccc(C)cc5s4)nn23)cc1	-14.7	29.1 µM [falling, single point]	–
O=C(/C=C/c1ccc(Cl)cc1Cl)NCCSCc1ccccc1	34.4	4.11 µM [rising, full curve]	8.2 µM [rising, partial curve]
CC(=O)CC1(OC(C)=O)C(=O)N(C)c2ccccc21 (stereo not drawn)	-35.5	23.1 µM [falling, single point]	20.6 µM [falling, single point]
O=C(Nc1ncccc1O)c1ccc(Oc2ccccc2)cc1	9.68	23.1 µM [rising, partial curve]	–
O=C(O)c1cccc(NS(=O)(=O)c2cccc3cccnc23)c1	21	0.00517 µM [rising, full curve, poor fit]	–
Cc1cccc(/C=N/NC(=O)Cn2nnnc2N)n1	-49.7	29.1 µM [falling, single point]	32.6 µM [falling, single point]
O=C(Cc1ccccc1)NNC(=S)Nc1ccc(Cl)cc1	-8.86	8.2 µM [rising, partial curve]	–
CC(NS(=O)(=O)c1ccc(Cl)cc1)C(=O)NCc1ccco1 (stereo not drawn)	-108	29.1 µM [falling, single point]	29.1 µM [falling, single point]
Cc1cc(NC(=O)c2sc3ccccc3c2O)no1	24.4	–	5.8 µM [rising, single point]
Cn1cnc(S(=O)(=O)Nc2cc(C(F)(F)F)ccc2N2CCOCC2)c1	-40.8	–	10.3 µM [falling, single point]
Nc1cc(N)nc(SCC(=O)Nc2ccc(Br)cc2Cl)n1	28.2	–	1.3 µM [rising, full curve, poor fit]
CC(c1nc2scc(-c3ccccc3)c2c(=O)[nH]1)N1CCN(CC(=O)NC2CC2)CC1 (stereo not drawn)	–	6.51 µM [falling, single point]	–
COc1ccc(-c2ccc3c(c2)S(=O)(=O)c2cccc(C(=O)NCc4ccccc4Cl)c2C3=O)cc1OC	-82.4	23.1 µM [falling, partial curve]	4.61 µM [falling, full curve]
O=C(Nc1ccc2c(c1)OCCO2)C1CCCN(S(=O)(=O)c2cccc3nsnc23)C1 (stereo not drawn)	–	–	2.06 µM [rising, partial curve, poor fit]

SMILES	cell number change [%]	AC50 [1]	AC50 [2]
Cc1ccc(S(=O)(=O)Nc2nc3ccc(S(C)(=O)=O)cc3s2)cc1	-7.87	2.31 µM [falling, full curve]	–
O=C(COC(=O)COc1cccc(Br)c1)Nc1c(Cl)cccc1Cl	-0.627	2.59 µM [rising, full curve]	–
CCN(C(=O)CSc1nnc(COc2cccc(C)c2)o1)c1nc(C)cs1	-2.63	5.62 µM [rising, single point]	–
O=C1CCCC2=C1C(c1cn(-c3ccccc3)nc1-c1cccs1)c1c([nH]c(=O)[nH]c1=O)N2 (stereo not drawn)	1.36	0.103 µM [rising, full curve, poor fit]	–
O=C(NCCCn1ccnc1)c1cc(S(=O)(=O)N2CCOCC2)ccc1F	-32.7	–	–
CCOc1ccc(C(=O)C2CCN(CC(=O)Nc3ccccc3N3CCOCC3)CC2)cc1	35.2	0.651 µM [rising, single point]	1.84 µM [rising, partial curve]
C=CCOc1ccc(CNCC2CCCO2)cc1 (stereo not drawn)	39.8	29.1 µM [falling, single point]	14.6 µM [rising, partial curve]
Cc1cc(NC(=O)CSc2nnc3c4c(C)c(C)sc4ncn23)no1	11.2	–	0.116 µM [falling, single point]
CCOC(=O)C1CCCN(C(=O)C2CCN(S(=O)(=O)c3ccc4ccccc4c3)CC2)C1 (stereo not drawn)	-1.66	14.6 µM [falling, partial curve]	–
CCC1(C(=O)OC)NC(c2ccco2)C2C(=O)N(c3ccc(C)cc3)C(=O)C21 (stereo not drawn)	–	0.00461 µM [falling, full curve, poor fit]	–
O=S(=O)(N1CCCCC1)N1CCNCC1	13.8	23.1 µM [falling, single point]	–
COC(=O)c1ccc(Nc2nc(N3CCOCC3)nc(N3CCOCC3)n2)cc1	0.295	0.58 µM [rising, single point]	–
CCOc1cc(C(=O)N(C)Cc2cc3ccccc3[nH]c2=O)cc(OCC)c1OCC	127	0.651 µM [rising, single point]	0.411 µM [rising, single point]
Cc1cc(NC(=O)/C=C/c2ccccc2Cl)no1	-20.8	29.1 µM [falling, single point]	2.06 µM [rising, partial curve]
COCc1cc(C)nc(N/N=C/c2ccc(-c3cc(C(=O)O)ccc3Cl)o2)c1C#N	4.26	–	–
COc1ccc(NC(=S)NC(=O)c2ccc(Br)o2)cc1	13.3	6.31 µM [falling, single point]	–
CCOc1ccccc1CN1CCN(Cc2ccc3cc(F)ccc3n2)CC1CCO (stereo not drawn)	-22.2	29.1 µM [falling, single point]	–
CC1CCc2ccc(F)cc2N1S(=O)(=O)c1cccs1 (stereo not drawn)	2.25	6.51 µM [falling, single point]	0.184 µM [falling, full curve, poor fit]
O=S(=O)(c1cccc2nsnc12)N1CCc2ccccc21	46.9	29.1 µM [falling, single point]	18.4 µM [rising, single point]

Structures listed so far containing bromine:
SMILES	cell number change [%]	AC50 [1]	AC50 [2]
O=C(NCC(c1ccco1)N1CCc2ccccc2C1)c1ccccc1Br (stereo not drawn)	4.42	32.6 µM [falling, single point]	–
Nc1cc(N)nc(SCC(=O)Nc2ccc(Br)cc2Cl)n1	28.2	–	1.3 µM [rising, full curve, poor fit]
O=C(COC(=O)COc1cccc(Br)c1)Nc1c(Cl)cccc1Cl	-0.627	2.59 µM [rising, full curve]	–
COc1ccc(NC(=S)NC(=O)c2ccc(Br)o2)cc1	13.3	6.31 µM [falling, single point]	–
